Single values of this data set are uncertain.
B1: human tRNA-Pro; a variant is named by its letters at N, in order (parent)
chain: GGCTCGTTGGTCTAGNGGTATGATTCTCGCTTAGGGTGCGAGAGGTCCCGGGTTCNNATCCCGGACGAGCCC

Legend:
[1] = variants of: B1; test: tRNA Pol-III promoter activity, log2 (circRNA frequency / plasmid DNA frequency) (log2 ratio); higher = stronger promoter activity; conditions: HEK293T; construct: no Pol-II promoter ((-)CMV library)
[2] = variants of: B1; test: tRNA 3' processing efficiency (processed reads / all reads, maximum-likelihood estimate) (fraction); higher = more efficient 3' processing; conditions: HEK293T; construct: no Pol-II promoter ((-)CMV library)
[3] = variants of: B1; test: tRNA 5' processing efficiency (processed reads / all reads, maximum-likelihood estimate) (fraction); higher = more efficient 5' processing; conditions: HEK293T; construct: CMV Pol-II promoter ((+)CMV library, decapped)

Row | Variant | tRNA Pol-III promoter activity (log2) [1] | tRNA 3' processing efficiency [2] | tRNA 5' processing efficiency [3]
1 | GAT T8C A14C | 4.67 | 0.33 | –
2 | GAT T8C A14G | 2.66 | 0.4 | –
3 | GCG T8C | 4.15 | 0.29 | –
4 | TGA | 0.161 | 0.5 | –
5 | GCA T19A A20G | 4.36 | 0.4 | –
6 | GCA T19A A20T | 5.51 | 0.58 | –
7 | GCC A14G | 3.45 | 0.33 | –
8 | GCA T8C G9A | 6.06 | 0.38 | –
9 | CAT T53G | 5.51 | 0.08 | –
10 | GCA G1A | 5.93 | 0.25 | –
11 | GCA A14G T59C | 1.94 | 0.33 | –
12 | GCA A14G T59G | 4.49 | 0.68 | 0.25
13 | GCA G9A T19C | 5.07 | 0.64 | –
14 | GCA G9A T19A | 3.77 | 0.2 | –
15 | GCA T19A A58G | 6.75 | 0.43 | –
16 | GCA | 0.886 | 0.42 | 0.47
17 | GCG | 1.29 | 0.15 | 0.09
18 | GCT | 1.17 | 0.31 | 0.25
19 | GCC | 2.58 | 0.09 | 0.33
20 | CCA T19G | 3.78 | 0.22 | –
21 | GAT T53A T59A | 5.26 | 0.3 | –
22 | GAT T53A T59C | 1.94 | 0.33 | –
23 | GAT T19C A58G | 4.76 | 0.34 | –

Row | Variant | tRNA Pol-III promoter activity (log2) [1] | tRNA 3' processing efficiency [2] | tRNA 5' processing efficiency [3]
24 | GAT T8C A58C | 3.52 | 0.43 | –
25 | GCA G17T A58C | 4.08 | 0.7 | –
26 | GCA A14C A20T | 4.41 | 0.42 | –
27 | CCA A58T T59C | 4.62 | 0.13 | –
28 | GCA T19A T59G | 4.94 | 0.5 | –
29 | GCA T19A T59A | 5.53 | 0.56 | –
30 | GCA T19A T59C | 5.97 | 0.13 | –
31 | TAT T19G | 3.83 | 0.38 | –
32 | TAT T19C | 4.63 | 0.46 | –
33 | CCA T8C A14T G15A T59A | 5.71 | 0.06 | –
34 | ACA G15T A58T | 5.84 | 0.57 | –
35 | GCA T8G G17C | 4.03 | 0.4 | –
36 | TCA C55T | 1.85 | 0.25 | –
37 | GCA G18T T59A | 3.55 | 0.2 | –
38 | TAT T53A | 2.79 | 0.2 | –
39 | GCC A14G G17A | 5.25 | 0.4 | –
40 | GAT T8G T19G | 2.12 | 0.5 | –
41 | GAT T8C G17C | 2.93 | 0.2 | –
42 | ACA T8C T19A C55G | 5.93 | 0.25 | –
43 | GCA G17A A20G | 3.43 | 0.57 | –
44 | TAT G18T T59G | 6.26 | 0.4 | –
45 | GCA A58G T59C | 5.2 | 0.11 | –
46 | GCA A58G T59G | 3.03 | 0.4 | –

Record cards (already shown). Order of values: tRNA Pol-III promoter activity (log2) [1] | tRNA 3' processing efficiency [2] | tRNA 5' processing efficiency [3]
GCA G18T T59A is listed with 3.55 | 0.2 | –
GCC is listed with 2.58 | 0.09 | 0.33

Next part:

Row | Variant | tRNA Pol-III promoter activity (log2) [1] | tRNA 3' processing efficiency [2] | tRNA 5' processing efficiency [3]
47 | GCA A14C T59C | 5.1 | 0.25 | –
48 | GAT T19A A20C | 4.96 | 0.35 | –
49 | GAT T19A A20T | 3.12 | 0.38 | –
50 | ACA T59G | 4.21 | 0.5 | –
51 | GAT T8C A20T | 2.58 | 0.33 | –
52 | GAT T8C A20G | 3.36 | 0.5 | 0.2
53 | GCA T19G A58T | 1.84 | 0.25 | –
54 | GAT T54C | -0.116 | 0.25 | –
55 | GAT T54A | 0.228 | 0.2 | –
56 | GCA G18A T19C | 4.74 | 0.43 | –
57 | CCA G9A | 3.13 | 0.22 | –
58 | GAT T8C T19A T59A | 5.03 | 0.25 | –
59 | GAT T8A G15A | 3.57 | 0.29 | –
60 | GAT T8A G15C | 3.34 | 0.17 | –
61 | GCA A14G T19G | 2.93 | 0.5 | –
62 | GCA A14T T19A T59G | 6.84 | 0.14 | –
63 | AAT T19G | 4 | 0.15 | –
64 | GCA T19C | 2.82 | 0.25 | –
65 | GCA T19A | 0.849 | 0.36 | –
66 | GCA T19G | 1.04 | 0.11 | –
67 | GAT T19A A58T | 3.76 | 0.62 | –
68 | GCA G17C C55T | 2.93 | 0.25 | –
69 | GAT T19C T54A | 3.62 | 0.67 | –

Row | Variant | tRNA Pol-III promoter activity (log2) [1] | tRNA 3' processing efficiency [2] | tRNA 5' processing efficiency [3]
70 | CCC | 4.68 | 0.1 | –
71 | CCG | 5.28 | 0.43 | –
72 | CCA | 1.01 | 0.27 | –
73 | GCA A14T T19G | 4.4 | 0.67 | –
74 | GCA A14T T19A | 4.25 | 0.2 | –
75 | GAT T19G A58T | 0.694 | 0.5 | –
76 | GAT T19G A58C | 3.13 | 0.25 | –
77 | GAT T8G G17A A58C | 5.26 | 0.29 | –
78 | GCA A14G | 1.7 | 0.29 | –
79 | GCA A14T | 1.94 | 0.33 | 0.2
80 | GCA A14C | 2.97 | 0.4 | –
81 | ACA T19A A58T | 4.52 | 0.14 | –
82 | GCA T8C A58T | 5.53 | 0.5 | –
83 | GAT T8C | 3.17 | 0.35 | 0.13
84 | GAT T8A | -0.102 | 0.33 | –
85 | GAT T8G | -0.233 | 0.33 | 0.2
86 | GCA T59G | 0.151 | 0.57 | –
87 | GCA T59C | 2.27 | 0.44 | –
88 | GCA T59A | 2.67 | 0.16 | 0.25
89 | GAT T19G A20G | 3.74 | 0.57 | –
90 | GAT T19G A20C | 5.49 | 0.27 | –
91 | GCA G9T | -0.409 | 0.25 | –
92 | GCA G9A | 2.03 | 0.71 | 0.33

Row | Variant | tRNA Pol-III promoter activity (log2) [1] | tRNA 3' processing efficiency [2] | tRNA 5' processing efficiency [3]
93 | GCA A14T A20C | 4.34 | 0.62 | –
94 | GCT T59G | 3.65 | 0.28 | –
95 | TCA A14G | 4.36 | 0.44 | –
96 | GCA A14G G15C A58T | 7.25 | 0.5 | –
97 | GAT T53C A58T | 1.93 | 0.5 | –
98 | ACG A58T | 3.68 | 0.2 | –
99 | CAT T19G | 4.03 | 0.45 | –
100 | CAT T19C | 5.59 | 0.14 | –
101 | AAT T53G | 3.36 | 0.25 | –
102 | GCA T19G T59C | 3.23 | 0.25 | –
103 | TCA T59G | 3.64 | 0.53 | –
104 | TCA T59C | 2.42 | 0.25 | –
105 | GCA G9T A14C | 2.12 | 0.25 | –
106 | GCA T19A T53C | 4.94 | 0.3 | –
107 | GAT T53A | 1.88 | 0.24 | –
108 | GAT T53G | -0.704 | 0.25 | –
109 | TCA A20G | 3.95 | 0.33 | –
110 | GCG T19A | 3.62 | 0.25 | –
111 | TCA T53A | 2.71 | 0.25 | –
112 | AAT T8G G17A A20C T54G T59C | 5.2 | 0.67 | –

A different layout for part of the listing above.
Row	Variant	tRNA Pol-III promoter activity (log2) [1]	tRNA 3' processing efficiency [2]	tRNA 5' processing efficiency [3]
108	GAT T53G	-0.704	0.25	–
109	TCA A20G	3.95	0.33	–
110	GCG T19A	3.62	0.25	–
111	TCA T53A	2.71	0.25	–
112	AAT T8G G17A A20C T54G T59C	5.2	0.67	–

Reference: the supplement of paper PMC6445147
